From PMC8225811
These are yes or no findings as the source states them, for the method shown. Binding seen in cells or lysates may run through a third protein. Some entries that bind do so weakly or less than the wild type. For some assays here: Sequences can lack the tags named with a protein.

Sequences of proteins named here, by UniProt entry; tags and fusion partners are left off.
UniProt P01106: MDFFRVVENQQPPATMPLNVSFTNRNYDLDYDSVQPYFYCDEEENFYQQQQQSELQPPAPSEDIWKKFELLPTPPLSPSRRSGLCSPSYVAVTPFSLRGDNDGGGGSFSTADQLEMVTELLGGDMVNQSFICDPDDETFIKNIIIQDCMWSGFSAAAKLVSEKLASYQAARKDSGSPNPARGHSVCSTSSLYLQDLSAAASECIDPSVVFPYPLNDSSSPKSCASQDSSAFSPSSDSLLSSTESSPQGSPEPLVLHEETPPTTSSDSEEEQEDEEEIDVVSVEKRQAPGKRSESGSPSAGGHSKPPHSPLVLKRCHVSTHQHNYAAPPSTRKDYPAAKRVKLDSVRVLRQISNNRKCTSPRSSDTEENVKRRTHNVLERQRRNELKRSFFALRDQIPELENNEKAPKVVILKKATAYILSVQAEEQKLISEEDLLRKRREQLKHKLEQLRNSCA

Key:
[1] = target: Flag-c-Myc (c-Myc, Flag-tagged, overexpressed) (UniProt P01106); assay: co-IP; A549 and PC9 cells co-transfected with His-SNIP1 and Flag-c-Myc; IP with anti-Flag (c-Myc) antibody and, in turn, with anti-His (SNIP1) antibody on protein A/G magnetic beads; GLB+ lysis buffer (150 mM NaCl, 10 mM Tris-HCl pH 7.5, 0.5% Triton X-100, 10 mM EDTA pH 8.0); also done after knockdown of lncRNA AFAP1-AS1 (interaction significantly weakened)
[2] = target: c-Myc (endogenous) (human (endogenous in A549 and PC9)) (UniProt P01106); assay: co-IP; endogenous proteins in A549 and PC9 lysates; antibody on protein A/G magnetic beads; GLB+ lysis buffer (150 mM NaCl, 10 mM Tris-HCl pH 7.5, 0.5% Triton X-100, 10 mM EDTA pH 8.0); also done after knockdown of lncRNA AFAP1-AS1 (interaction weakened)

Binder	binding [1]	binding [2]
His-SNIP1 (Smad nuclear interacting protein 1, His-tagged, overexpressed) (protein, UniProt Q8TAD8 1-396) MKAVKSERERGSRRRHRDGDVVLPAGVVVKQERLSPEVAPPAHRRPDHSGGSPSPPTSEPARSGHRGNRARGVSRSPPKKKNKASGRRSKSPRSKRNRSPHHSTVKVKQEREDHPRRGREDRQHREPSEQEHRRARNSDRDRHRGHSHQRRTSNERPGSGQGQGRDRDTQNLQAQEEEREFYNARRREHRQRNDVGGGGSESQELVPRPGGNNKEKEVPAKEKPSFELSGALLEDTNTFRGVVIKYSEPPEARIPKKRWRLYPFKNDEVLPVMYIHRQSAYLLGRHRRIADIPIDHPSCSKQHAVFQYRLVEYTRADGTVGRRVKPYIIDLGSGNGTFLNNKRIEPQRYYELKEKDVLKFGFSSREYVLLHESSDTSEIDRKDDEDEEEEEEVSDS	binds	
SNIP1 (endogenous) (protein, UniProt Q8TAD8 1-396) MKAVKSERERGSRRRHRDGDVVLPAGVVVKQERLSPEVAPPAHRRPDHSGGSPSPPTSEPARSGHRGNRARGVSRSPPKKKNKASGRRSKSPRSKRNRSPHHSTVKVKQEREDHPRRGREDRQHREPSEQEHRRARNSDRDRHRGHSHQRRTSNERPGSGQGQGRDRDTQNLQAQEEEREFYNARRREHRQRNDVGGGGSESQELVPRPGGNNKEKEVPAKEKPSFELSGALLEDTNTFRGVVIKYSEPPEARIPKKRWRLYPFKNDEVLPVMYIHRQSAYLLGRHRRIADIPIDHPSCSKQHAVFQYRLVEYTRADGTVGRRVKPYIIDLGSGNGTFLNNKRIEPQRYYELKEKDVLKFGFSSREYVLLHESSDTSEIDRKDDEDEEEEEEVSDS		binds
